In the supplement of paper PMC12024529:
Structures can show the parent of a compound that is named as a salt. Some of the results follow. Baselines shift from plate to plate; read single values as rough.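 HEK293 lines stably express B-domain-deleted factor VIII fused to Gaussia luciferase, wild type or a misfolding-prone missense mutant. Scores equal triplicate-well mean luminescence minus DMSO mean, divided by DMSO standard deviation; scores of 2 or higher are hits. Low scores may indicate reduced secretion or worse cell viability.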

Columns and labels:
[1] = tested on: HEK293 WT BDD-FVIII-Gluc; assay: secreted FVIII-Gluc luciferase Z-score vs DMSO control; higher = more FVIII-Gluc secretion; conditions: 5 µM; 24 h
[2] = tested on: HEK293 p.N1941S BDD-FVIII-Gluc; assay: as above; conditions: 5 µM; 24 h

| SMILES | secreted FVIII-Gluc luciferase Z-score [1] | secreted FVIII-Gluc luciferase Z-score [2] |
| --- | --- | --- |
| C[C@H]1C[C@@H]2[C@H]([C@@H](O)C[C@@]3(C)[C@H]2CC[C@]3(O)C(=O)CO)[C@@]2(C)C=CC(=O)C=C12 [Methylprednisolone] | active: 4.99 | active: 5.64 |
| COC1C=COC2(C)Oc3c(C)c(O)c4c(O)c(c5c(c4c3C2=O)=NC2(CCN(CC(C)C)CC2)N=5)NC(=O)C(C)=CC=CC(C)C(O)C(C)C(O)C(C)C(OC(C)=O)C1C (stereo unspecified) [Rifabutin (Mycobutin)] | inactive: -3.71 | inactive: -2.19 |
| C[C@@H]1C(=O)O[C@H]2C[C@@]34[C@H]5C[C@@H](C(C)(C)C)[C@]36[C@@H](OC(=O)[C@@H]6O)O[C@@]4(C(=O)O5)[C@]21O [Ginkgolide A] | inactive: 0.58 | inactive: -1.41 |
| OCC(CO)N[C@H]1C[C@](O)(CO)[C@@H](O)[C@H](O)[C@H]1O [Voglibose] | active: 10.8 | active: 3.34 |
| COc1ccccc1OCC(O)CN1CCN(CC(=O)Nc2c(C)cccc2C)CC1 (stereo unspecified) [Ranolazine (Ranexa)] | inactive: -3.59 | inactive: -0.46 |
| C[C@@H](NCCCc1cccc(C(F)(F)F)c1)c1cccc2ccccc12 [AMG-073 HCl (Cinacalcet hydrochloride)] | inactive: 0.506 | inactive: 0.691 |
| CCCC(C(=O)OCCN(CC)CC)(c1ccccc1)c1ccccc1 [Proadifen HCl] | inactive: -0.714 | inactive: 0.929 |
| CC(C)(C)NC(=O)[C@H]1CC[C@H]2[C@@H]3CC[C@H]4NC(=O)C=C[C@]4(C)[C@H]3CC[C@]12C [Finasteride] | inactive: 1.64 | inactive: -0.542 |
| Cc1ccc(Cl)c(Nc2ccccc2C(=O)O)c1Cl [Meclofenamate Sodium] | inactive: -0.125 | inactive: -0.282 |
| CN(CCOc1ccc(NS(C)(=O)=O)cc1)CCc1ccc(NS(C)(=O)=O)cc1 [Dofetilide (Tikosyn)] | inactive: 0.533 | inactive: 0.475 |
| COc1cc2ncnc(Nc3ccc(F)c(Cl)c3)c2cc1OCCCN1CCOCC1 [Gefitinib (Iressa)] | inactive: -1.43 | inactive: -4.2 |
| C[C@H]1O[C@@H](n2cc(F)c(=O)[nH]c2=O)[C@H](O)[C@@H]1O [Doxifluridine] | inactive: -0.947 | inactive: -0.477 |
| COc1ccc(CC2c3cc(OC)c(OC)cc3CC[N+]2(C)CCC(=O)OCCCCCOC(=O)CC[N+]2(C)CCc3cc(OC)c(OC)cc3C2Cc2ccc(OC)c(OC)c2)cc1OC (stereo unspecified) [Atracurium besylate] | inactive: -2.61 | inactive: -1.37 |
| C#Cc1cccc(Nc2ncnc3cc(OCCOC)c(OCCOC)cc23)c1 [Erlotinib HCl] | inactive: -1.25 | inactive: -3.45 |
| CC(=O)Oc1ccc(C(c2ccc(OC(C)=O)cc2)c2ccccn2)cc1 [Bisacodyl] | inactive: -0.87 | inactive: -1.13 |
| CC1=C(/C=C/C(C)=C/C=C/C(C)=C/C(=O)O)C(C)(C)CCC1 [Tretinoin (Aberela)] | inactive: -3.16 | inactive: 0.674 |
| O=C(CCCN1CC=C(n2c(=O)[nH]c3ccccc32)CC1)c1ccc(F)cc1 [Droperidol] | inactive: 0.419 | inactive: -1.4 |
| C[N+]1(C)CCC(=C(c2ccccc2)c2ccccc2)CC1 [Diphemanil methylsulfate] | inactive: -0.915 | inactive: -1.14 |
| CC(C)NC[C@H](O)COc1ccc(CCOCC2CC2)cc1 [Levobetaxolol HCl] | inactive: -0.382 | inactive: -1.13 |
| CC(=O)Oc1cc(C(F)(F)F)ccc1C(=O)O [Triflusal] | inactive: 1.34 | inactive: 0.32 |

Given with bars between the fields: part of the list above.
SMILES | secreted FVIII-Gluc luciferase Z-score [1] | secreted FVIII-Gluc luciferase Z-score [2]
COC1C=COC2(C)Oc3c(C)c(O)c4c(O)c(c5c(c4c3C2=O)=NC2(CCN(CC(C)C)CC2)N=5)NC(=O)C(C)=CC=CC(C)C(O)C(C)C(O)C(C)C(OC(C)=O)C1C (stereo unspecified) [Rifabutin (Mycobutin)] | inactive: -3.71 | inactive: -2.19
C[C@@H]1C(=O)O[C@H]2C[C@@]34[C@H]5C[C@@H](C(C)(C)C)[C@]36[C@@H](OC(=O)[C@@H]6O)O[C@@]4(C(=O)O5)[C@]21O [Ginkgolide A] | inactive: 0.58 | inactive: -1.41
CCCC(C(=O)OCCN(CC)CC)(c1ccccc1)c1ccccc1 [Proadifen HCl] | inactive: -0.714 | inactive: 0.929
CN(CCOc1ccc(NS(C)(=O)=O)cc1)CCc1ccc(NS(C)(=O)=O)cc1 [Dofetilide (Tikosyn)] | inactive: 0.533 | inactive: 0.475

Next part

| SMILES | secreted FVIII-Gluc luciferase Z-score [1] | secreted FVIII-Gluc luciferase Z-score [2] |
| --- | --- | --- |
| COc1c(C)c2c(c(O)c1C/C=C(\C)CCC(=O)O)C(=O)OC2 [Mycophenolic (Mycophenolate)] | inactive: -4.55 | inactive: -6.61 |
| Cc1c(N(C)C)c(=O)n(-c2ccccc2)n1C [Amidopyrine] | inactive: 0.00679 | inactive: -1.12 |
| O=S(=O)(O)CCS [Mesna (Uromitexan, Mesnex)] | inactive: 1.39 | inactive: -2.73 |
| CN1c2cc(O)c(N=NC(N)=O)cc2CC1S(=O)(=O)O (stereo unspecified) [Carbazochrome sodium sulfonate] | inactive: 1.21 | inactive: 0.117 |
| CN1C(CCl)Nc2cc(Cl)c(S(N)(=O)=O)cc2S1(=O)=O (stereo unspecified) [Methyclothiazide] | inactive: -0.473 | inactive: 0.994 |
| Cc1cc(=O)n(-c2ccccc2)n1C [Antipyrine] | inactive: -1.06 | inactive: -0.0393 |
| Cc1ccc(C)c(OCCCC(C)(C)C(=O)O)c1 [Gemfibrozil (Lopid)] | inactive: -1.53 | inactive: -0.954 |
| COc1ccc2c(c1OC)C(=O)O[C@@H]2[C@H]1c2c(cc3c(c2OC)OCO3)CCN1C [Noscapine HCl] | inactive: -1.84 | inactive: -1.53 |
| Cc1ccc(O)c([C@H](CCN(C(C)C)C(C)C)c2ccccc2)c1 [Tolterodine tartrate (Detrol LA)] | inactive: -1.08 | inactive: -1.04 |
| O=c1ccc2ccccc2o1 [Coumarin] | inactive: 0.776 | inactive: 0.796 |
| N=C(N)Nc1ccc(C(=O)Oc2ccc3cc(C(=N)N)ccc3c2)cc1 [Nafamostat mesylate] | inactive: -3.1 | inactive: 0.829 |
| Clc1ccc(C(Cn2ccnc2)OCc2ccc(Sc3ccccc3)cc2)c(Cl)c1 (stereo unspecified) [Fenticonazole nitrate] | inactive: -1.97 | inactive: -1.33 |
| Cn1c(=O)c2[nH]cnc2n(C)c1=O [Aminophylline (Truphylline)] | inactive: 1.14 | inactive: 0.37 |
| c1ccc2[nH]c(-c3cscn3)nc2c1 [Thiabendazole] | inactive: -2.27 | inactive: -0.149 |
| CN(Cc1cnc2nc(N)nc(N)c2n1)c1ccc(C(=O)N[C@@H](CCC(=O)O)C(=O)O)cc1 [Abitrexate (Methotrexate)] | inactive: -3.6 | inactive: -11 |
| CC(C)(O)c1ccccc1CC[C@@H](SCC1(CC(=O)O)CC1)c1cccc(/C=C/c2ccc3ccc(Cl)cc3n2)c1 [Montelukast Sodium] | inactive: -0.721 | inactive: -1.34 |
| CC1=CC(=O)c2ccccc2C1=O [Menadione] | inactive: -2.69 | inactive: -0.884 |
| C[C@@H]1CN(c2c(F)c(N)c3c(=O)c(C(=O)O)cn(C4CC4)c3c2F)C[C@H](C)N1 [Sparfloxacin] | inactive: -2.48 | inactive: -0.647 |
| Cc1oncc1C(=O)Nc1ccc(C(F)(F)F)cc1 [Leflunomide] | inactive: 0.489 | inactive: 0.573 |
| CCCSc1ccc2[nH]c(NC(=O)OC)nc2c1 [Albendazole (Albenza)] | inactive: -6.77 | inactive: -5.76 |

| SMILES | secreted FVIII-Gluc luciferase Z-score [1] | secreted FVIII-Gluc luciferase Z-score [2] |
| --- | --- | --- |
| COc1cc2/c(=N/c3ccc(Br)cc3F)nc[nH]c2cc1OCC1CCN(C)CC1 [Vandetanib (Zactima)] | inactive: -3.48 | inactive: -12.5 |
| Cc1cn([C@@H]2C[C@@H](O)[C@H](CO)O2)c(=O)[nH]c1=O [Telbivudine (Sebivo, Tyzeka)] | inactive: -1.9 | inactive: -0.876 |
| C=C1/C(=C\C=C2/CCC[C@]3(C)[C@@H]([C@H](C)/C=C/[C@H](C)C(C)C)CC[C@@H]23)C[C@@H](O)C[C@@H]1O [Doxercalciferol (Hectorol)] | inactive: -5.29 | inactive: -0.293 |
| CC1(C)Cc2c(-c3ccccc3)c(-c3ccc(Cl)cc3)c(CC(=O)O)n2C1 [Licofelone] | inactive: 0.114 | inactive: -1.44 |
| CS(=O)(=O)c1ccc(C2=C(c3ccccc3)C(=O)OC2)cc1 [Rofecoxib (Vioxx)] | inactive: -0.768 | inactive: -1.52 |
| O=c1[nH]c(=O)n(C2CCCO2)cc1F (stereo unspecified) [Ftorafur] | inactive: -4.13 | inactive: 0.0433 |
| Cc1ncc(CO)c(CO)c1O [Pyridoxine hydrochloride] | inactive: 0.0177 | inactive: -0.484 |
| Cc1ccc(-n2[nH]c(C)c(N=Nc3cccc(-c4cccc(C(=O)O)c4)c3O)c2=O)cc1C | inactive: -0.116 | inactive: -1.03 |
| COc1ccc2cccc(CCNC(C)=O)c2c1 [Agomelatine] | inactive: 0.511 | inactive: 1.56 |
| CCC[S+]([O-])c1ccc2[nH]c(NC(=O)OC)nc2c1 (stereo unspecified) [Albendazole Oxide (Ricobendazole)] | inactive: -1.09 | inactive: -0.0122 |
| CNC[C@H](O)c1cccc(O)c1 [Phenylephrine HCl] | inactive: 0.226 | inactive: -1.8 |
| CNCCc1ccccn1 [Betahistine 2HCl] | inactive: -0.672 | inactive: 1.39 |
| COC1C(O)CC(=O)OC(C)CC=CC=CC(OC2CCC(N(C)C)C(C)O2)C(C)CC(CC=O)C1OC1OC(C)C(OC2CC(C)(O)C(O)C(C)O2)C(N(C)C)C1O (stereo unspecified) [Spiramycin] | inactive: -1.94 | inactive: -0.874 |
| Cc1nc(Nc2ncc(C(=O)Nc3c(C)cccc3Cl)s2)cc(N2CCN(CCO)CC2)n1 | inactive: -4.55 | inactive: -13.3 |
| CCCCOc1ccc(C(=O)CCN2CCCCC2)cc1 [Dyclonine HCl] | inactive: -0.157 | inactive: -1.91 |
| COc1cnc(NS(=O)(=O)c2ccc(N)cc2)nc1 [Sulfameter (Bayrena)] | inactive: -1.35 | inactive: 0.646 |
| C#C[C@]1(OC(C)=O)CC[C@H]2[C@@H]3CCC4=C[C@@H](OC(C)=O)CC[C@@H]4[C@H]3CC[C@@]21C [Ethynodiol diacetate] | inactive: -1.68 | inactive: -2.3 |
| C[C@]12CC[C@@H]3c4ccc(O)cc4CC[C@H]3[C@@H]1C[C@@H](O)[C@@H]2O [Estriol] | inactive: -2.9 | inactive: -2.03 |
